Data reported in US20260275319A1, “ARCHAEAL PEPTIDE RECOMBINASE – A NOVEL PEPTIDE LIGATING ENZYME” (MAX-PLANCK-GESELLSCHAFT ZUR FÖRDERUNG DER WISSENSCHAFTEN …, priority 2019, published 2026).
These are yes or no findings as the source states them, for the method shown. A result given as binding can be weak or reduced; the word gives no strength. Tags and fused reporters may be left off the sequences shown.

Key:
[1] = molecular target: M. jannaschii MtrA^Δ174-245 with N-terminal His6-tag (Methanocaldococcus jannaschii); experiment: SEC-MALS, 1:1 molar mixture of 200 µM proteins
[2] = molecular target: M. jannaschii MtrA^Δ174-245 with N-terminal His6-tag (Methanocaldococcus jannaschii); experiment: SEC-MALS, 1:1 molar mixture
[3] = molecular target: M. jannaschii MtrA^Δ174-245 with N-terminal His6-tag (Methanocaldococcus jannaschii); experiment: microscale thermophoresis (MST), Adriase titrated against labelled MtrA^Δ174-245, three measurements
[4] = molecular target: M. jannaschii MtrA^Δ174-245 with N-terminal His6-tag (Methanocaldococcus jannaschii); experiment: size-exclusion chromatography with light scattering (SEC-MALS), A280 against volume

Measured: binding

B1: M. jannaschii Adriase S1A mutant with C-terminal His-tag (enzyme)
chain: ALIICYYGKNGAVIGGDRRQIFFRGSEENRKILEEKLYSGEIKSEEELYKLAEKLNIKIIIEDDREKVRKISDSVVCGEVRSLGIDAKRRRVYATKGKCAIVDILNDTVTNQTIKEGFGIVVLGNRFLKKKAEEELKRTAKLFPMMPIQQIEDAIKEIFEKLKWHPTVSKEYDIYSVNKYEKNFEEVIKKDIESLFKYREQLRKQLIDFGKVMSIVNKIVKNGEIGVIKDGKLHLYDDYIAIDKIDPNPKVFKVVDVEGNFKDGDIVVIENGDMKIKGTNEKVTTKYIIIHKGSHHHHHH
binds: all assays above
